Screen size: about 53,000 sequences; about 3,700 (7%) were called active.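 The calls were made as follows: active = gene knockdowns whose robust z-score for IL-1 alpha signal is at least 2 or at most -2, so actives lie on both sides; inactive = the rest.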 Some of the results follow.
Experiment: Components of the Cytosolic LPS Sensing Pathway: Gene Identification via Genome-wide siRNA Screen;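 also: robust z of the log signal after scaling to non-targeting control siRNA wells of the plate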
Conditions: RAW264.7 macrophages, IL-1a HTRF, actives lie on both sides, screened at 100 nM (by protocol), cells primed 5 h with Pam3CSK4 first
Summary of the method: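 IL-1a HTRF of supernatants after 24 hour LipidA transfection of Pam3CSK4-primed (5 hours) RAW264.7 cells, 48h post-siRNA transfection (100 nM). Scores: percent of plate negative-control median, then log-based robust z-score.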

Sequence	z-score
GGAGGGUAUUAGUGCACUGTT against Ptpn1	inactive: -0.111
GGAGAAGAAAGUGGAGGCATT against Rplp1	inactive: -0.403
GGAUAUGCACAGACCACCCTT against Ewsr1	inactive: -1.38
GGGACUAUCCACUCACUUUTT against Olfr981	inactive: 0.419
GGCAGAGUUUGAAAAGAUCTT against Parp16	inactive: -1.42
GCACUUUUCUAGGAGCAGCTT against Arx	inactive: 1.16
GGUGGCAAAACAGUCUGUATT against Olfr1457	inactive: 1.34
GGUGCUCAUUGCUGUUUCUTT against Tcaf2	inactive: -1.11
CCAUCACGAGUGAAUUCGATT against Olfr945	active: -2.13
GGAAGAAAGAAAGAACAGATT against Rgs7bp	inactive: 0.385
CCAAGCAGAAAAGUUCCUUTT against Tcf3	inactive: 0.767
CCCUAAUCACAUUUUGUGATT against Socs5	inactive: -0.0146
GGUUGUUCAGUUCAAACUCTT against Dbt	inactive: 1.35
GCUCUGCAUGACCUUACCUTT against Ugt2b1	inactive: 0.245
GGAGAAUACCAGCAACAUCTT against Golga5	inactive: 0.328
GGACAGAAACUAAUUGCAUTT against Tmc5	inactive: 0.278
GGCGUGUUGAGACAAUCCUTT against Lkaaear1	inactive: -0.815
GGAAGUUGUAUAAGCCAGGTT against Cyb5d2	inactive: -0.197
GGAUGUUCCAUUUCUAAGCTT against Zfp30	active: -3.76
CCCAUCCUAUGUGCCCUAUTT against Krtap13-1	inactive: -1.91
GGCCAAAUACGUCAAGAGCTT against Fam110b	inactive: 0.588
GGAGAUCACCUUCCUGAAGTT against Comp	inactive: -1.51

Sequence	z-score
GGUGAAAAGAUGCAGGUGATT against Atp1a3	inactive: -1.1
GGAAUUGGCAUCCUUAAGCTT against Cops3	active: 2.43
CCUCACUGUAAUGUAACUUTT against Scarf2	inactive: -0.683
CGUGACUAUUCUGAUAAGUTT against Arl15	inactive: 0.134
GCUGGAGCUAUCCAACACUTT against Chst11	inactive: -1.73
GGUUCCUUCGUUGUGUUGATT against Irx3	inactive: -1.1
CGAGCUGUGUUUUUGGCUGTT against Mrpl11	inactive: 1.2
GGAGGAUGACAAAAUCUAUTT against Rnf113a2	inactive: 1.25
GAAUCUGGUGAAGUAUUAUTT against Phip	inactive: 0.518
CCGGAAAAUACGCACUGUATT against Obox6	inactive: -1.27
CCCUUUGUGUGGAUUAUAUTT against Sp9	active: 2.91
GCUAUAGAUUGGCUUUAUGTT against Depdc1a	inactive: 0.727
GGACAGCUUCAUCAAGCCUTT against Cep89	inactive: -0.628
GGCUCUAAAUUUUUUGUUCTT against Derl1	inactive: 0.532
GCAAGUGAAAUCCAAACAGTT against Nabp1	inactive: -1.54
GGCUGGAUGUCCUAUAGUCTT against Adam24	inactive: 1.03
GGUGGACUCACAUUAUUGUTT against Dctn4	inactive: 0.535
GGUGAUAGAGCACAAGGCUTT against G930045G22Rik	inactive: 0.0132
GGCACUCCAUCAAAGGCUUTT against Cd209a	inactive: -1.38
GGCAAAGAGAUUGACAUUGTT against Kif2c	inactive: -0.991
CCAUAUCUCUAUCUACUGGTT against Rs1	inactive: 0.546
GGUUUGAAAUCAGCAUGAUTT against Mpzl3	inactive: 0.652

Sequence	z-score
GCAGUCAAUUCCCUUUUACTT against Ankmy1	inactive: -0.876
GCUUCCUCUAUUCGAUUUUTT against Dennd5a	inactive: 0.527
CCUGUUCUGCCCUAAAUUUTT against Olfr1155	inactive: -0.919
GGUCGGCCAAUUACAAUGUTT against Eml4	active: 2.16
GGUCCAUGAACCUCAGUGUTT against F830045P16Rik	inactive: -0.561
GGGAGGACCUUGUGUAUCATT against Igsf21	inactive: -0.173
CCUUGACUGGAAUAUAUAATT against Dlc1	inactive: -0.398
GCACCUCUAUUAUAAUAAGTT against Vps13c	inactive: -0.453
GGGUACCAUAUCCUCACCUTT against Ltbp3	inactive: -1.61
CGCAUGCCUGUAAAAUAAATT against 2310057M21Rik	inactive: -1.37
UCUGCCACCCUCUCCAAUATT against Olfr1116	inactive: 0.0182
GGAAAUAAUGCUUAUGGAUTT against Abcb1b	inactive: -0.699
GGACCUGUUGUCAGACUGCTT against Kif20a	inactive: 1.57
GCUUGACAAUAAAUCCCACTT against Efcab14	inactive: 0.585
CCUGGCAGACGUGGAACAATT against Ppp1r13l	inactive: -0.102
CGAGGAUUAAGAGGACUUCTT against Col9a3	inactive: -1.99
CCAGAUUCUAUAAUAGAGUTT against Gabrp	inactive: -0.232
GGAGCUAUAAUUAACAAGATT against Adam6a	inactive: 0.152
GCCAUAAGUUAUGAUGUGGTT against Cplx4	inactive: -0.733
GCUCUGAAGCUGAUACUCATT against Rab3ip	inactive: -1.23
GGGUCCUCUGAAAGUUACCTT against Fndc5	inactive: 0.497
GGACCAUUCUGAAGAGCAGTT against Il5ra	inactive: 0.867

Reformatted: entries from further up.
Sequence,z-score
GGCACUCCAUCAAAGGCUUTT against Cd209a,inactive: -1.38
GGCAAAGAGAUUGACAUUGTT against Kif2c,inactive: -0.991
CCAUAUCUCUAUCUACUGGTT against Rs1,inactive: 0.546
GGUUUGAAAUCAGCAUGAUTT against Mpzl3,inactive: 0.652
GCAGUCAAUUCCCUUUUACTT against Ankmy1,inactive: -0.876

Next part.

Sequence	z-score
GGUUCCAUGUUGGAUAUCATT against Stk39	inactive: -1.1
GGAUGAAGGCCAUUCAAACTT against Hnrnpd	active: 2.04
GCCUAUUCACCAAAUCACATT against Frrs1	inactive: 0.408
GGGCUUUACUGACUUCAAGTT against Hexa	inactive: -0.526
GGAGAUUCUGUGCAAUGCATT against Dnajc12	inactive: -0.0758
GCUGGACAAACGAUGGUCATT against Ift122	inactive: -1.7
GGCUCUGUUGUCCUUGACCTT against Epb41l4a	inactive: -0.97
GGAAAGGUAAUCCUGACUUTT against Asb17	inactive: -1.87
GGUCCGGGAGUAACUUUUCTT against Mafb	inactive: -1.36
GGGACAAUACAUUGAUAGCTT against Vmn1r206	inactive: -0.625
GCCUGUCUGCCUUUGCUUCTT against H4c9	active: 2.47
GGACGGCAGAAAGCAUUUATT against Olfr317	inactive: 0.693
GGUUAACACUGGACGUGGUTT against Vps37c	inactive: -0.0487
GGUGAAAACCUCAUAAAUGTT against Zfp945	inactive: 0.878
GGCAAAGGAUGAUUCGGCUTT against Tfam	inactive: 0.495
GGUUGGGCAUUGCACUAACTT against Alg11	inactive: -0.948
GGGAACCAUGGGAAUAUUUTT against Acaa1b	inactive: -0.0771
GGAGCUUAUGCAUGAGUUUTT against Slc16a3	inactive: -0.768
GGUUUUUGAUGAUUGCUUUTT against Slc49a4	inactive: 0.221
GCUCCAUGAAACCCACUCUTT against Zmiz1	inactive: -0.656
GCACCUGGAAAUAAAAUGCTT against Selenbp2	inactive: -0.899
GGAAUCUCAUGACUCUACCTT against Mybpc2	inactive: 0.707

Sequence	z-score
GGACCAUUUACACAUUCAGTT against Kptn	inactive: 0.239
GGUAGUGUCGGAUGUGCUATT against Mab21l2	inactive: -0.696
GGAUAACACUGUGAGAGUUTT against Il17f	inactive: 1.25
GGCAAAAAGUAUUCUGAAGTT against Lrrc9	inactive: 0.144
GGAGCCCAUCAAGUAUGGUTT against Peli3	inactive: -1.92
CCAAGCUACCAGGGUUUUUTT against Abcb9	active: 2.1
CCAAGAGUCUAUAUCCGCUTT against Sardh	inactive: 1.16
GCGACAGGAUGAGAAAGCATT against Ppm1f	inactive: 0.425
GGAUGGCUUUCUGUCUUUCTT against Trappc1	inactive: 1
CGACCUACUCUACAGCAAATT against Brinp3	active: 2.6
GGAAAUCGUAAAGUUUAGCTT against Inmt	inactive: 0.797
GGUCAACGUGUAUGUAUUUTT against Lrat	inactive: -1.27
GCCCUGAAGCCUAUAAUCATT against Nhlrc1	active: 2.34
GCCGUAUGGCAAGAUUGUCTT against Rbms2	inactive: -0.442
GGAAGCGAUAAUUUUAAGCTT against Ptges3	inactive: 1.64
GGAUCUGGGAUACCACACATT against Wdr1	inactive: 1.04
UCUCUUGGUACAUUUGGCATT against 1700073E17Rik	inactive: -0.039
GGGCAGAAAAUUGACUUAATT against Nemf	inactive: -1.14
GGAAUUCAUUGCUAUUAUGTT against Cetn3	active: 2.12

Source: PubChem BioAssay AID1508600 (Functional Genomics Laboratory (NCATS/FGL), 2020)
